Measurements reported in publication PMC8494447.
No constants are given. Whether binding was seen depends on the method and setting. Binding seen in cells or lysates may run through a third protein. A yes stands for co-enrichment or nearness to the bait. Other partners may have been found. Values belong to the binder of their own block, whether it stands above or below them.

Amino acid sequences for entries named in this document (tags omitted).
UniProt Q13546: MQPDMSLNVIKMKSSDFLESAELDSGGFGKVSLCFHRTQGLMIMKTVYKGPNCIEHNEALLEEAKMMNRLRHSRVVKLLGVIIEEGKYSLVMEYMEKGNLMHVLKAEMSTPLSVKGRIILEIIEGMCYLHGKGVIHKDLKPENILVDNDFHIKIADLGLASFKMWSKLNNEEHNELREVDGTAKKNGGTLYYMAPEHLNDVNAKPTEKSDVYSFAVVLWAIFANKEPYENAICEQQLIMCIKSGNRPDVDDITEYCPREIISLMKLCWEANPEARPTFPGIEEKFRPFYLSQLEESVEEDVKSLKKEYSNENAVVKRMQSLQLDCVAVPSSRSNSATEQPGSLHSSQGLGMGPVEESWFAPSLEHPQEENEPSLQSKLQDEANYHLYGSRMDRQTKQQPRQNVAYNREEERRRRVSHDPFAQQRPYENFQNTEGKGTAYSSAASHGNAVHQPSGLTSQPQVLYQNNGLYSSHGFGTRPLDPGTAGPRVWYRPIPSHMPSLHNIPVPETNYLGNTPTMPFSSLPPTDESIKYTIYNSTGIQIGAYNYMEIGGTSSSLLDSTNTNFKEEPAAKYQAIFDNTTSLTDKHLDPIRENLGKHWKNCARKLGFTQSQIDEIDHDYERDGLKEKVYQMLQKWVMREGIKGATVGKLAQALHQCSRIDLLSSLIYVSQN

Target: SFB-RIP1 (UniProt Q13546)
Experiment: affinity purification with mass spectrometry; SFB-RIP1 transiently expressed in HEK293T; lysate on streptavidin Sepharose 4 h 4°C, biotin elution, then S-protein agarose overnight 4°C; nano-LC-MS/MS

binding: binds
B1: HSPA13, endogenous in HEK293T (protein, UniProt P48723 23-471)
chain: QQYLPLPTPKVIGIDLGTTYCSVGVFFPGTGKVKVIPDENGHISIPSMVSFTDNDVYVGYESVELADSNPQNTIYDAKRFIGKIFTAEELEAEIGRYPFKVLNKNGMVEFSVTSNETITVSPEYVGSRLLLKLKEMAEAYLGMPVANAVISVPAEFDLKQRNSTIEAANLAGLKILRVINEPTAAAMAYGLHKADVFHVLVIDLGGGTLDVSLLNKQGGMFLTRAMSGNNKLGGQDFNQRLLQYLYKQIYQTYGFVPSRKEEIHRLRQAVEMVKLNLTLHQSAQLSVLLTVEEQDRKEPHSSDTELPKDKLSSADDHRVNSGFGRGLSDKKSGESQVLFETEISRKLFDTLNEDLFQKILVPIQQVLKEGHLEKTEIDEVVLVGGSTRIPRIRQVIQEFFGKDPNTSVDPDLAVVTGVAIQAGIDGGSWPLQVSALEIPNKHLQKTNFN

binding: binds
B2: TAK1-binding protein 2, endogenous in HEK293T (protein, UniProt Q9NYJ8 1-693)
chain: MAQGSHQIDFQVLHDLRQKFPEVPEVVVSRCMLQNNNNLDACCAVLSQESTRYLYGEGDLNFSDDSGISGLRNHMTSLNLDLQSQNIYHHGREGSRMNGSRTLTHSISDGQLQGGQSNSELFQQEPQTAPAQVPQGFNVFGMSSSSGASNSAPHLGFHLGSKGTSSLSQQTPRFNPIMVTLAPNIQTGRNTPTSLHIHGVPPPVLNSPQGNSIYIRPYITTPGGTTRQTQQHSGWVSQFNPMNPQQVYQPSQPGPWTTCPASNPLSHTSSQQPNQQGHQTSHVYMPISSPTTSQPPTIHSSGSSQSSAHSQYNIQNISTGPRKNQIEIKLEPPQRNNSSKLRSSGPRTSSTSSSVNSQTLNRNQPTVYIAASPPNTDELMSRSQPKVYISANAATGDEQVMRNQPTLFISTNSGASAASRNMSGQVSMGPAFIHHHPPKSRAIGNNSATSPRVVVTQPNTKYTFKITVSPNKPPAVSPGVVSPTFELTNLLNHPDHYVETENIQHLTDPTLAHVDRISETRKLSMGSDDAAYTQALLVHQKARMERLQRELEIQKKKLDKLKSEVNEMENNLTRRRLKRSNSISQIPSLEEMQQLRSCNRQLQIDIDCLTKEIDLFQARGPHFNPSAIHNFYDNIGFVGPVPPKPKDQRSIIKTPKTQDTEDDEGAQWNCTACTFLNHPALIRCEQCEMPRHF
